In the assay the target is CD40 from RS11846 B-cell lymphoma cell lysate (human) (UniProt P25942). The assay is described as follows: GST pull-down from RS11846 lymphoma cell lysate, western blot with anti-CD40.

Amino acid sequences for entries named in this document (tags omitted). Residues count along the entry.
UniProt P25942, residues 21-277: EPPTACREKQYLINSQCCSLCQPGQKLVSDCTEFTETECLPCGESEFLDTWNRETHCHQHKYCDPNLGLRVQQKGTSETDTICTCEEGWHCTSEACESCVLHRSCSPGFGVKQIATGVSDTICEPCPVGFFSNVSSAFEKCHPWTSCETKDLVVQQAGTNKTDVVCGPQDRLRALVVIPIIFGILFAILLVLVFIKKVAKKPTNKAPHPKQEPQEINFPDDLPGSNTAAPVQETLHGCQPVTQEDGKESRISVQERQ

Results are given in words; binding and its absence hold for the method and conditions named. In cells and extracts the contact can be indirect. Some binding calls cover weakened binding; strength is not graded here. Sequences can lack the tags named with a protein.

B1: GST-CAP-1 (positions 363-543) (protein, not shown: a dimerising Fc or GST; large carriers; small tags and cut ends)
chain: HDQMLSVHDIRLADMDLRFQVLETASYNGVLIWKIRDYKRRKQEAVMGKTLSLYSQPFYTGYFGYKMCARVYLNGDGMGKGTHLSLFFVIMRGEYDALLPWPFKQKVTLMLMDQGSSRRHLGDAFKPDPNSSSFKKPTGEMNIASGCPVFVAQTVLENGTYIKDDTIFIKVIVDTSDLPDP
B1: the binding entry is “binds”.
